According to PubChem BioAssay AID493014 (National Center for Advancing Translational Sciences (NCATS), 2011):
Among all 340,000 compounds or so, about 170 (0.05%) were called active. Inconclusive means that the source gave no clear call. Such entries were picked first, then a sample of the others. The call rests on the fitted dose curve; in most records, active means well fitted inhibition curve with a large enough effect in the signal ratio, with a control signal flat (not every such curve was filed as active); inconclusive means small, poorly fitted or top-dose-only effect, or effect the other way, or a change in a side signal; inactive means flat fitted curve, though single readings scatter; the % refers to the signal ratio. A potency beside an inconclusive call is a rough fit, not a confirmed value.

Assay: qHTS Assay to Find Inhibitors of Chronic Active B-Cell Receptor Signaling;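 on activity change, negative = inhibition: plate controls were basal doxycycline-induced cells for no effect and cells given 10 µM MG132 for full effect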
Conditions: ABC-DLBCL IkBa-CBG/CBR reporter, luminescence ratio (green luciferase fused to IkBa over red control in TMD8 lymphoma cells), 4 h; activity change, negative = inhibition: at 46.1 µM (top of the series) unless noted
In short: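 Doxycycline induced both beetle luciferases in TMD8 lymphoma cells; IKK-driven degradation limits the IkappaBalpha-fused green signal, while red luminescence normalises for cell number and nonspecific effects. Compounds tested up to 46 uM, 4 hrs.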
Potency means the concentration at half of the fitted maximal effect.

SMILES	activity change, negative = inhibition	Potency
O=C(Nc1ccccc1)N1CCCN(c2ccc(C(F)(F)F)cn2)CC1	inconclusive: -0.158%	
Oc1ccccc1N=Nc1nc(-c2ccccc2)c(-c2ccccc2)[nH]1	inconclusive: 23.5%	
O=C(NCc1ccco1)c1cccc2c1C(=O)c1ccc(/C=C/c3ccccc3)cc1S2(=O)=O	inconclusive: -1.64%	
Cc1csc(NC(=O)CCC(=O)N(CC(=O)NC2CCCC2)c2ccccc2)n1	inconclusive: 7.07%	
COc1ccc(-n2nnnc2/C=C\Nc2ccccc2C(=O)c2ccccc2)cc1	inactive	
COc1cc(/C=C/C(=O)OCC(=O)Nc2ccc3c(c2)OCCO3)ccc1O	inactive	
COc1ccc(C(c2c[nH]c3ccccc23)c2c[nH]c3ccccc23)cc1O		inconclusive: 0.0058 µM [falling, full curve, poor fit]
CC(=O)Nc1ccccc1C(=O)C(=O)Nc1ccc(F)cc1	inconclusive: -0.734%	
C[C@]12C=CC(=O)C=C1CC[C@@H]1[C@@H]2[C@@H](O)C[C@@]2(C)[C@H]1CC[C@]2(O)C(=O)CO		inconclusive: 1.26 µM [falling, full curve, poor fit]
Cn1ccnc1SCC(=O)Nc1ccc2c(c1)COC2=O		inconclusive: 32.6 µM [falling, single point]
O=c1[nH]n(-c2ncnc3c2cnn3-c2ccccc2)c(=O)c2ccccc12	inconclusive: 13.7%	
COc1cc(OC)c2c(c1)C(=O)c1cc(OC)cc(OC)c1C2=O		inconclusive: 15.8 µM [falling, partial curve, poor fit]
Cn1c(NC(=O)C[n+]2cc(-c3ccc(Cl)c(Cl)c3)n3c2CCC3)cc(=O)n(C)c1=O	inactive	
CCOC(=O)c1c(SCC(=O)Nc2nc(C)cs2)nc(=O)[nH]c1C	inconclusive: -1.67%	
CCOC(=O)C(C)Oc1ccc(C2NC(=O)NC(C)=C2C(=O)Nc2ccccc2C)cc1 (centres undefined)	inconclusive: 7.22%	
Cc1cc(NC(=O)c2ccccc2C)no1		inconclusive: 17.8 µM [falling, partial curve, poor fit]
CCOC(=O)C1=C(C)N(CCCC(=O)O)C(=O)NC1c1ccc(Cl)cc1 (centres undefined)	inactive	
Cc1nc(NC(=O)/C=C/c2ccccc2)sc1C(=O)N(C)C	inconclusive: -3.51%	
O=C1C2CC=CCC2C(=O)N1c1n[nH]c(CCc2ccccc2)n1 (centres undefined)	inconclusive: -2.86%	
CCC(C)[C@@H](NC(=O)OC(C)(C)C)c1nnc(S(=O)(=O)Cc2cccc(C)c2)o1 (some centres undefined)	inconclusive: 11%	
CCC(=O)NC(=S)Nc1cccc(Cl)c1N1CCCCC1	inconclusive: -19.1%	
Nc1[nH]nc2nc(NCc3ccccc3)c3c(c12)CCN(Cc1ccccc1)C3	inconclusive: -0.562%	
Cc1nc(-c2coc3cc(OCC(=O)O)ccc3c2=O)cs1	inconclusive: 29.8%	
CN1CCN(C(=O)/C=C\c2ccc(Cl)cc2)CC1	inconclusive: 11.6%	
O=C(CSc1nncs1)Nc1ccc2c(c1)OCCO2		inconclusive: 6.51 µM [falling, single point]
COC(CNC(=O)c1ccc2nc3ccccc3c(=O)n2c1)OC	inconclusive: 4.99%	
Cc1ccc(-n2c3c(cc(C(=O)Nc4cccc(C)n4)c2=O)C(=O)CCC3)cc1	inconclusive: 4.04%	

Looked up above.
activity change, negative = inhibition, `COC(CNC(=O)c1ccc2nc3ccccc3c(=O)n2c1)OC` is entered as inconclusive: 4.99%
activity change, negative = inhibition, `O=C1C2CC=CCC2C(=O)N1c1n[nH]c(CCc2ccccc2)n1` (centres undefined) is entered as inconclusive: -2.86%

Following part

SMILES	activity change, negative = inhibition	Potency
O=C(Nc1ccc(N2CCOCC2)cc1N1CCOCC1)c1ccc(Cl)cc1	inactive	
C(=N\Nc1nc2ccccc2s1)/c1ccco1		inconclusive: 20 µM [falling, single point]
COC(=O)C1=C(C)OC(N)=C(C#N)C1C1CCCCC1 (centres undefined)		inconclusive: 35.5 µM [falling, single point]
CC1CCCCC1NC(=O)Cc1ccc(S(=O)(=O)N2CCOCC2)s1 (centres undefined)	inconclusive: -5.57%	
COc1ccc(S(=O)(=O)NCc2ccc3c(c2)OCO3)cc1OC	inactive	
Cc1ccc(-c2nc3ccsc3c(=O)o2)cc1	inconclusive: -28.8%	
COc1ccc(/C(C)=N/NC(=S)Nc2cc(C)ccc2C)cc1		inconclusive: 35.5 µM [cytotoxic, single point]
C[C@]12c3[nH]c4ccc(Cl)cc4c3CCN1C(=O)[C@@H](CC(=O)NCCC1=CCCCC1)C[C@@H]2C(=O)N1CCCCC1	inconclusive: -5.91%	
CCOC(=O)c1ccc(CSC(=N)N)o1		inconclusive: 10 µM [falling, partial curve]
CC(=O)c1ccc(NC(=O)COC(=O)c2c3c(nc4ccccc24)/C(=C\c2cccs2)CCC3)cc1	inactive	
Cc1cccc(N2C(=O)c3cccc4c(N(C)CCO)ccc(c34)C2=O)c1	inconclusive: 0.0737%	
C/C(CC(=O)Nc1cccc2c1CCCC2)=N\NC(=O)c1cccc2ccccc12	inconclusive: -16.6%	
COc1ccc2cc(CN(CC3CCCO3)S(=O)(=O)c3ccccc3Cl)c(=O)[nH]c2c1 (centres undefined)		inconclusive: 18.4 µM [falling, partial curve]
COc1ccccc1C(=O)Nc1sc2c(c1C(N)=O)CCCC2	inactive	
COc1ccc(C2CC(c3ccccc3)n3nnnc3N2)cc1 (centres undefined)	inconclusive: 6.79%	
CC(C)C(C)NC(=O)COc1ncnc2ccccc12 (centres undefined)	inconclusive: 21.6%	
O=C(Nc1ccc(Cl)cc1)N1CCOC12CCC1(CC2)OCCO1	inconclusive: 3.8%	
COCc1ccc(C(=O)N2CCCC(C(=O)c3cc(F)ccc3F)C2)s1 (centres undefined)		inconclusive: 12.6 µM [rising, partial curve]
COC(=O)N1CCN(c2ccc(OC)cc2)CC1	inactive	
Cc1ccc(C(=O)N2CCCC(CCC(=O)NCc3ccccc3F)C2)cn1 (centres undefined)	inconclusive: 2.96%	
Cc1[nH]c2ccccc2c1C(=O)CCl		inconclusive: 20 µM [falling, single point]
O=C(c1cc2nc(-c3ccco3)cc(C(F)(F)F)n2n1)N1CCN(c2ccccn2)CC1	inconclusive: 14.8%	
Cc1cc(-n2nnc3ccccc32)nc2ccccc12	inactive	
COc1cc(C2C(C#N)=C(N)Oc3cc(N(C)C)ccc32)cc2c1OCO2 (centres undefined)		inconclusive: 0.447 µM [falling, full curve, poor fit]
Cc1c(Cl)c(C(=O)Nc2nc3ccccc3n2CCN2CCCCC2)nn1C		inconclusive: 11.6 µM [falling, partial curve, poor fit]
NC(=O)c1cc2ccncc2c2ccccc12	inconclusive: 19.7%	
CCCCC[C@H](O)/C=C/[C@@H]1[C@@H](C/C=C\CCCC(=O)O)[C@H]2CO[C@@H]1C2		inconclusive: 1.41 µM [falling, full curve]

Record cards (already shown):
Nc1[nH]nc2nc(NCc3ccccc3)c3c(c12)CCN(Cc1ccccc1)C3 is listed as activity change, negative = inhibition: inconclusive: -0.562%
Cc1cc(-n2nnc3ccccc32)nc2ccccc12 is listed as activity change, negative = inhibition: inactive
CCOC(=O)c1c(SCC(=O)Nc2nc(C)cs2)nc(=O)[nH]c1C is listed as activity change, negative = inhibition: inconclusive: -1.67%
O=C(Nc1ccc(Cl)cc1)N1CCOC12CCC1(CC2)OCCO1 is listed as activity change, negative = inhibition: inconclusive: 3.8%

The listing continues.

SMILES	activity change, negative = inhibition	Potency
COC(=O)c1cc(=O)n2c(sc3ccccc32)c1C#N		inconclusive: 7.94 µM [falling, partial curve, poor fit]
Cn1c(=O)c2c(nc(Oc3ccc(F)cc3)n2Cc2ccc(F)cc2)n(C)c1=O	inactive	
O=C(COC(=O)c1oc2ccccc2c1CSc1ccc(Cl)cc1)NC1CCCC1	inconclusive: 8.77%	
CC(C)(C)NC(=O)CN(Cc1ccccc1)S(=O)(=O)c1ccccc1	inactive	
Cc1cccc(C2c3[nH]c4ccccc4c3CCN2C(=O)c2ccc(=O)[nH]c2)n1 (centres undefined)		inconclusive: 15.8 µM [falling, single point]
COc1ccc(O)c(C(=O)/C=C/c2cc3ccccc3o2)c1	inactive	
O=c1oc2ccccc2c(Nc2ccc(F)cc2)c1[N+](=O)[O-]	inactive	
Nc1ccc2nc(-c3cc(Cl)c(N)c(Cl)c3)[nH]c2c1		inconclusive: 6.51 µM [falling, partial curve]
O=C(NCc1nnc(SCC(=O)N2CCN(c3ccccc3)CC2)o1)c1ccccc1	inconclusive: 1.21%	
Brc1ccc(-c2csc(Nc3nc(-c4ccc(Br)cc4)cs3)n2)cc1	inconclusive: 6.87%	
CC(=O)c1ccc(C(=O)N2CCCC(CCC(=O)N(C)CCc3ccccn3)C2)s1 (centres undefined)	inconclusive: -2.56%	
Cc1ccc(-c2nc3cc(N)ccc3o2)cc1Br	inconclusive: 4.75%	
COCCn1nnnc1C(c1cc2ccc(C)cc2[nH]c1=O)N(Cc1ccco1)Cc1cccs1 (centres undefined)	inconclusive: -1.8%	
Cc1cccc(N(C(=O)c2snc(C(N)=O)c2N)C(C(=O)NC2CCCC2)c2ccc(C)o2)c1 (centres undefined)		inconclusive: 10 µM [rising, partial curve, poor fit]
O=C1c2ccccc2NC(c2cccc([N+](=O)[O-])c2)N1CCc1ccccc1 (centres undefined)	inconclusive: 10.8%	
COc1ccc(N2CCN(c3cc(C)c4ccc(C)cc4n3)CC2)cc1	inconclusive: 0.331%	
BrCCOCCOc1ccc2ccccc2c1	inconclusive: 7.13%	
CCn1ncc(Br)c1C(=O)Nc1ncc(C)s1	inconclusive: 5.28%	
CCOC(=O)c1c(C)nc2sc(C(N)=O)c(N)c2c1-c1ccccc1	inconclusive: -7.96%	
CC(C)(C)CC(=O)Nc1cc(S(=O)(=O)N2CCOCC2)ccc1N1CCCC1	inactive	
O=C(NCc1ccccc1)c1cc[n+](CC(=O)c2cccs2)cc1	inconclusive: 13.6%	
CCOC(=O)c1ccccc1NS(=O)(=O)c1ccc(C)cc1	inconclusive: 2.73%	
CCn1c(SCC(=O)N2CCN(c3ccc(Cl)cc3)CC2)nc2ccccc2c1=O	inactive	
Cc1ccc(N(CC(=O)NC2CCCCC2)C(=O)CCC(=O)Nc2nccs2)cc1		inconclusive: 35.5 µM [falling, single point]
Cc1c(NC(=O)c2cccc(NC(=O)COc3ccccc3C#N)c2)c(=O)n(-c2ccccc2)n1C		inconclusive: 23.1 µM [falling, partial curve]
